Reference: US20230331852A1
Results are given in words; binding and its absence hold for the method and conditions named. Some entries that bind do so weakly or less than the wild type.

Sequences of proteins named here, by UniProt entry; tags and fusion partners are left off. A change or cut given only in a name is not applied to a line headed by its entry.
UniProt Q8NC01: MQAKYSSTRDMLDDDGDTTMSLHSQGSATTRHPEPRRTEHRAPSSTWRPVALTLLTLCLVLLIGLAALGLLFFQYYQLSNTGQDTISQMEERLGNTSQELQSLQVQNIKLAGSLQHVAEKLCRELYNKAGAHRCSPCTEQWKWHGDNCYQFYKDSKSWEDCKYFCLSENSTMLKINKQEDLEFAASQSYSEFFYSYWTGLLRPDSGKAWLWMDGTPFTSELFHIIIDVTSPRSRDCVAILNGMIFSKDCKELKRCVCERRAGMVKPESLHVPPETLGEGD

Key:
[1] = target: recombinant human CLEC-1 protein with His Tag (#1704-CL R&D Systems) (human) (UniProt Q8NC01); assay: ELISA, immobilised hCLEC1-His
[2] = target: human CLEC-1A expressed on the cell membrane (human) (UniProt Q8NC01); assay: flow cytometry on human U266 cells
[3] = target: recombinant human CLEC-1 protein with His Tag (#1704-CL R&D Systems) (human) (UniProt Q8NC01); assay: BLI (Blitz), CLEC1-His on Ni-NTA biosensor

binding [1]: binds
binding [2]: binds
binding [3]: binds
B1: murine anti-hCLEC1 antibody 14H9-F3 (antibody, V domains shown)
VH: QVQLKESGPGLVAPSQSLSITCTISGFSLTTYGIHWVRQPPGKGLEWLVVIWSDGSTIYNSALKSRLSISKDNSKSQVFLKMNSLQTDDTAIYYCARHGGYYNYFDYWGQGTTLTVSS
VL: DIQMNQSPSSLSASLGDTITITCHASQNINVWLSWYQQKPGNIPKLLIYKASNLHTGVPSRFSGSGSGTTFTLTIDSLQPEDIATYYCQQGQSYWTFGGGTKLEIK
